Some of the results follow. The main result of the screen is listed elsewhere. These columns were measured beside it and carry no call. The list favours compounds with an active or inconclusive main result. Potencies come from curve fits of mixed quality, noted in brackets.
Experiment: qHTS Assay for Lipid Storage Modulators in Drosophila S3 Cells;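 on cell number change: cells counted by Cell Tracker Red CMTPX staining in the red channel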
Details: BODIPY lipid droplet fluorescence, 18-24 h; for cell number change: measured here: cell count max response, cells fed with added oleic acid
Outline: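 Drosophila S3 cells got compounds at several concentrations plus oleic acid (400 uM solution). Laser-scanning cytometry with 488 nm excitation read lipid droplets at 500-530 nm and cells at 575-640 nm. Percent activity was relative to 20 uM Triacsin C.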

[1] = measured here: lipid fluorescence (Fed channel) AC50, cells fed with added oleic acid
[2] = measured here: cell number channel AC50, cells fed with added oleic acid

SMILES	cell number change [%]	AC50 [1]	AC50 [2]
CCOc1ccc(-c2noc(CCC(=O)NC3CCCC3)n2)cc1OC	-21.9	6.51 µM [rising, single point]	–
COC(=O)c1ccc(CSc2ccc3nnc(-c4ccccc4)n3n2)o1	–	–	6.51 µM [rising, single point]
Cc1c(CN(C)C)c2c(n1Cc1ccccc1)C(=O)c1ccc(Br)cc1-2	-44.1	0.206 µM [rising, full curve, poor fit]	0.731 µM [rising, single point]
CCOc1ccc(Nc2ccnc3cc(Cl)ccc23)cc1	-15.1	6.51 µM [rising, single point]	–
Cc1cccc(C(=O)O)c1[N+](=O)[O-]	3.5	11.6 µM [rising, single point]	–
COCCN1C(=O)C(O)=C(C(C)=O)C1c1ccc(OC)c(OC)c1 (centres undefined)	-36.7	–	5.8 µM [falling, partial curve]
CN(C)CCn1c(=S)[nH]c2ncccc2c1=O	-22.8	32.6 µM [falling, single point]	–
Nc1ncc(Br)cc1S(=O)(=O)Nc1cc(C(F)(F)F)cc(C(F)(F)F)c1	–	0.731 µM [falling, full curve]	–
CC1CCC2(CC1)NC(=O)N(CC(=O)Nc1ccccc1-c1ccccc1)C2=O (centres undefined)	-0.79	–	6.51 µM [rising, single point]
C=C(C)C1Cc2cc3ccc(=O)oc3cc2O1 (centres undefined)	5.25	8.2 µM [rising, partial curve, poor fit]	–
CN(CC(=O)Nc1nccs1)S(=O)(=O)c1ccc(F)cc1	91.1	18.4 µM [rising, partial curve]	16.4 µM [rising, single point]
Cc1ccc(-n2c(N)c(C(=O)N3CCN(C)CC3)sc2=S)cc1	-83.8	–	29.1 µM [falling, single point]
CCC1=NN2C(=N)/C(=C\c3cccn3-c3ccc(Cl)cc3)C(=O)N=C2S1	0.301	1.64 µM [rising, partial curve, poor fit]	–
CC(C)(CO)NCc1ccccc1OCC(=O)Nc1ccccc1	10.2	0.517 µM [falling, full curve]	–
Cc1nc2ccc(S(=O)(=O)NC(C(=O)Nc3nccs3)C(C)C)cc2s1 (centres undefined)	–	2.06 µM [rising, partial curve]	2.31 µM [rising, partial curve]
O=C(CSc1nc2[nH]ncc2c(=O)n1-c1ccccc1)c1ccc2c(c1)OCCO2	–	0.731 µM [rising, single point]	–
O=C(CC(c1ccccc1)c1ccccc1O)NCc1ccccc1 (centres undefined)	-5.91	0.291 µM [falling, partial curve]	–
CCCS(=O)(=O)N1CCCC(C(=O)NCCN(CC)CC)C1 (centres undefined)	12.7	29.1 µM [rising, partial curve, poor fit]	–
CC1(c2ccccc2)NC(=O)N(CC(=O)Nc2ccccc2N2CCCCC2)C1=O (centres undefined)	-7.8	14.6 µM [falling, single point]	–
COc1ccc(CNC(=O)C2CCC(CNc3c(N4CCC(C)CC4)c(=O)c3=O)CC2)cc1 (centres undefined)	–	–	0.00461 µM [falling, full curve, poor fit]

SMILES	cell number change [%]	AC50 [1]	AC50 [2]
O=C(COC(=O)c1c2c(nc3ccccc13)/C(=C\c1cccs1)CCC2)Nc1ccccc1	-37.8	2.59 µM [falling, full curve]	3.66 µM [falling, full curve]
CCOC(=O)COn1c(=O)c(C)[n+]([O-])c2ccccc21	35.1	0.082 µM [rising, full curve, poor fit]	29.1 µM [rising, single point]
FC(F)(F)c1cccc(N2CCN(c3nnnn3-c3ccccc3)CC2)c1	–	23.1 µM [rising, single point]	–
COc1ccccc1NC(=O)C(=O)NCc1ccncc1	10.4	29.1 µM [rising, partial curve, poor fit]	–
Nc1ccc(-n2cc(-c3ccccc3)[nH]c2=S)cc1	–	29.1 µM [rising, single point]	–
O=C(Nc1nc2ccccc2[nH]1)c1cccc(F)c1	3.91	0.0731 µM [falling, full curve, poor fit]	–
O=C(CSc1ccccc1C(=O)O)NCC1CCCCC1	-25.7	–	–
CCc1nc(NCc2ccco2)c2oc3ccccc3c2n1	-7.69	–	–
COc1ccc(-c2nn(-c3ccccc3)cc2/C=N/NS(=O)(=O)c2ccccc2)cc1	-8.47	1.84 µM [rising, partial curve]	3.66 µM [rising, single point]
COc1cc(Cl)c(C)cc1NC(=O)CSc1cc(Cl)ccc1Cl	5.8	10.3 µM [rising, partial curve]	–
COc1cc(CC(NC(C)=O)C(=O)NC2CCN(C(=O)c3ccc(C)cc3)CC2)cc(OC)c1 (centres undefined)	-14.1	5.17 µM [rising, single point]	–
Cn1c(=O)c2cc(S(=O)(=O)NCCC(=O)N3CC=C(c4ccccc4)CC3)ccc2n(C)c1=O	81.2	11.6 µM [rising, partial curve]	7.31 µM [rising, partial curve]
O=C(CCn1c(SCC(=O)NCc2ccco2)nc2ccccc2c1=O)NCCc1ccccc1	2.48	2.06 µM [rising, partial curve]	–
CC(=O)N1N=C(c2cccc([N+](=O)[O-])c2)OC1c1cccc(Br)c1 (centres undefined)	-47.9	0.092 µM [falling, full curve]	–
COc1cc(/C=C(/C#N)c2nc3ccccc3[nH]2)ccc1OCC(=O)Nc1ccccc1C(C)C	-78.4	5.8 µM [falling, partial curve]	8.2 µM [falling, partial curve]
CC(C)CCN=CC1=C(O)CC(c2ccccc2)CC1=O (centres undefined)	29.8	0.206 µM [rising, full curve]	0.164 µM [rising, full curve, poor fit]
Cc1ccc2[nH]c(=O)c(CN(CCCN(C)C)C(=O)Nc3ccc(Cl)cc3)cc2c1	23.6	6.51 µM [falling, single point]	–
CCOc1cc(N2CCOCC2)c(OCC)cc1NC(=O)c1ccc(OC(C)C)cc1	-49.4	–	0.00517 µM [falling, full curve, poor fit]
O=S(=O)(NCCCO)c1ccc2c(c1)Cc1cc(S(=O)(=O)NCCCO)ccc1-2	-27	29.1 µM [falling, single point]	–
Cc1cc(=O)oc(C)c1C(=O)N1CCc2c([nH]c3ccccc23)C1C(C)C (centres undefined)	-17	0.00461 µM [falling, full curve, poor fit]	–

In another format: entries from further up.
COc1ccccc1NC(=O)C(=O)NCc1ccncc1
  cell number change [%]: 10.4; AC50 [1]: 29.1 µM [rising, partial curve, poor fit]
Nc1ccc(-n2cc(-c3ccccc3)[nH]c2=S)cc1
  AC50 [1]: 29.1 µM [rising, single point]
O=C(Nc1nc2ccccc2[nH]1)c1cccc(F)c1
  cell number change [%]: 3.91; AC50 [1]: 0.0731 µM [falling, full curve, poor fit]
O=C(CSc1ccccc1C(=O)O)NCC1CCCCC1
  cell number change [%]: -25.7

Remaining list, next part

SMILES	cell number change [%]	AC50 [1]	AC50 [2]
N=P(N1CCOCC1)(N1CCOCC1)C12CC3CC(CC(C3)C1)C2	-1.88	–	–
CCOC(=O)c1c(C)[nH]c(C(=O)CSc2ccccc2)c1C	-34.8	–	16.4 µM [falling, single point]
O=C(OCC(=O)N1CCN(C(=O)c2ccco2)CC1)c1ccc(S(=O)(=O)N2CCCCC2)cc1	-6.31	23.1 µM [falling, single point]	–
Cc1noc(C)c1CNCc1ccccc1	–	0.651 µM [rising, full curve, poor fit]	–
Cc1nc(-c2ccc(Cl)cc2)sc1C1(C)CC(c2cccnc2)=NO1 (centres undefined)	31.5	7.31 µM [rising, partial curve]	4.61 µM [rising, full curve]
O=C(CNS(=O)(=O)c1ccc(F)cc1)N1CCCCCC1	15.7	–	–
CCOc1ccc(N(CC(=O)NCc2ccc(F)cc2)C(=O)CCC(=O)Nc2nccs2)cc1	-1.35	–	–
CCC(CC)c1nnc(NC(=O)C2CC(=O)N(CCc3ccc(F)cc3)C2)s1 (centres undefined)	7.26	0.58 µM [rising, single point]	–
CN(C)c1ccc(C(=O)OCC(=O)NCCNC(=O)COC(=O)c2ccc(N(C)C)cc2)cc1	13	–	–
CC(=O)NC(CC(=O)Nc1ccc2c(c1)OCCO2)c1ccccc1 (centres undefined)	20.3	29.1 µM [rising, single point]	–
O=CNn1cnc2c(oc3nc(-c4ccccc4)cc(-c4ccco4)c32)c1=O	38.9	–	20.6 µM [rising, single point]
S=C1N(c2ccccc2)CN(CCN2CCOCC2)CN1c1ccccc1	-7.87	–	–
CCCn1c(SCC(=O)c2c(N)n(C3CC3)c(=O)[nH]c2=O)nc2cc(S(N)(=O)=O)ccc21	0.775	4.61 µM [rising, full curve, poor fit]	–
CC(C)(CNc1ccc(S(=O)(=O)C(F)(F)F)cc1[N+](=O)[O-])N1CCOCC1	3.78	–	–
COc1cccc(N2CCN(C(=O)c3ccc4nc(N5CCC(C)CC5)sc4c3)CC2)c1	13.5	29.1 µM [falling, single point]	–
N/C(=N\OC(=O)c1cccnc1)c1ccc(Cl)cc1Cl	22.1	29.1 µM [rising, single point]	–
Cn1c(CC(=O)NNC(=O)c2ccccc2[N+](=O)[O-])nc2ccccc21	15.4	1.16 µM [rising, full curve]	–
CN1CCC(=NNC(=O)CSCc2ccccc2)CC1	-38.3	–	32.6 µM [falling, single point]
COc1ccccc1C(=O)NCC(=O)OC(C)C(=O)NC(=O)NC1CCCCC1 (centres undefined)	53.3	–	23.1 µM [rising, single point]
Cc1ccc(-n2c(SCC(=O)N3CCCCC3)nc(O)cc2=O)cc1	-1.09	–	2.91 µM [falling, single point]

— PubChem BioAssay AID2685 (National Center for Advancing Translational Sciences (NCATS), 2010)
